Measured values taken from PMC5393896.
No constants are given. Whether binding was seen depends on the method and setting. In cells and extracts the contact can be indirect. Some results given as binding are weak or reduced against the parent protein; the word gives no strength.

By UniProt entry, the sequences of proteins in these tests, tags left out.
UniProt P47117: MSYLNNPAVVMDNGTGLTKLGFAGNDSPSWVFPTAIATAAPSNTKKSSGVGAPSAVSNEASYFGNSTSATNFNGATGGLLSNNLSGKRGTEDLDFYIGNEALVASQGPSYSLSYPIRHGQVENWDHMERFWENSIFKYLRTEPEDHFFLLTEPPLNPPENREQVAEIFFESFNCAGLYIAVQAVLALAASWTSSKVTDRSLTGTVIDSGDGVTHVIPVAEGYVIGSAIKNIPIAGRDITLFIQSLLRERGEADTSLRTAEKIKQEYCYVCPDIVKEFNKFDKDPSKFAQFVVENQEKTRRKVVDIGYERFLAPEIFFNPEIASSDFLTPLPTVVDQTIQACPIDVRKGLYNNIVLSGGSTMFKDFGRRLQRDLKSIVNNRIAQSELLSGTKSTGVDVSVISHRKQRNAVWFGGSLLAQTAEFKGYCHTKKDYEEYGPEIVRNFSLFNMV

Target: Sup35 translation termination factor tagged at its C-terminus with a tandem affinity purification (TAP) tag (S. cerevisiae) (UniProt P05453)
Experiment: co-IP; Sup35-TAP immunoprecipitated from wild-type and tsa1 tsa2 mutant extracts; immunoblot with antibodies against Abp1, Arp3, Sap190 and Act1

Substance | binding
Arp3 (from UniProt P47117 1-449) | binds
Act1 (from UniProt P60010 1-375) (other; other documents disagree on this pair) | binds
